Laboratory results published in patent US10052311B2, “PPAR compounds for use in the treatment of fibrotic diseases” (INVENTIVA, priority 2014, dated 2018).
For at least one compound, name, drawing or mass did not settle the structure.

Columns and labels:
[1] = system: anti-GBM exposed mice; assay: Anti-GBM induced glomerulonephritis in mice; assay type: in vivo, mouse
[2] = system: bleomycin-exposed mice; assay: Bleomycin-induced skin fibrosis in mice; assay type: in vivo, mouse; details: 5 mg/kg/day po 21 days, vs vehicle
Protocol: The experiments were carried out on 6-week-old male C56BL/6 mice (Janvier, Le Genest-Saint-Isle, France).
0.9% NaCl was used as control (100 μL subcutaneous injections).
On day 21, mice were sacrificed by cervical dislocation, and skin samples were taken and processed for analysis.
Lesional skin areas were excised, fixed in 4% formalin and embedded in paraffin. Five μm thick sections were stained with haematoxylin and eosin. The dermal thickness was analyzed at 100-fold magnification by measuring the distance between the epidermal-dermal junction and the dermal-subcutaneous fat junction at four sites from lesional skin of each mouse. Two independent examiners performed the evaluation before a consensus in case of more of 10% of variability of the measures.
The collagen content in lesional skin samples was explored by hydroxyproline assay. After digestion of punch biopsies (ø3 mm) in 6M HCl for three hours at 120° C., the pH of the samples was adjusted to 7 with 6M NaOH. Afterwards, samples were mixed with 0.06 M chloramine T and incubated for 20 min at room temperature. […] The absorbance was determined at 557 nm with a Spectra MAX 190 microplate spectrophotometer (Molecular Devices, Sunnyvale, Calif., USA).
Total soluble collagen in cell culture supernatants was quantified using a Sircol collagen assay (Biocolor). Briefly, cell culture supernatant was mixed with sirius red dye for 30 minutes at room temperature. After centrifugation, the pellet was dissolved in alkali reagent. Measurement was performed using a SpectraMax 190 microplate spectrophotometer (Molecular Devices) at a wavelength of 540 nm.
Data were expressed as mean±standard error of the mean. The Student t-test was used for statistical analyses. A p value of less than 0.05 was considered as a statistically significant result.

[3] = system: bleomycin-exposed mice; assay: Bleomycin-induced pulmonary fibrosis in mice; details: 5 mg/kg/day po 15 days, vs vehicle
[4] = anti-GBM-exposed mice, 30 mg/kg/day po 7 days, vs vehicle
[5] = mouse, in vivo, po, 3 mg/kg/day

CCc1ccc(CCOc2ccc(CC3SC(=O)NC3=O)cc2)nc1 (centres unmarked) [pioglitazone]
Col1a expression (kidney) [1, 4]: significantly upregulated Col1a expression
Col3a expression (kidney) [1, 4]: upregulated Col3a expression without reaching significance
TGFβR-1 expression (kidney) [1, 4]: upregulated TGFβR-1 expression without reaching significance
kidney MCP-1 levels [1, 4]: significantly increased MCP-1 levels
kidney osteopontin levels [1, 4]: significantly increased osteopontin levels
serum urea levels [1, 4]: increased urea levels without reaching significance
urinary albumin levels [1, 4]: significantly increased albumin levels
urinary volume [1, 4]: increased urinary albumin without reaching significance

CN(CCOc1ccc(CC2SC(=O)NC2=O)cc1)c1ccccn1 (centres unmarked) [rosiglitazone, reference compound]
collagen content (skin) [2]: significantly reduced the collagen content
dermal thickness [2]: significantly reduced dermal thickness
hydroxyproline content in lesioned skin [2]: significantly lower
Col3a expression (kidney) ([1]; mouse, in vivo, po): significantly upregulated Col3a expression
Col1a expression (kidney) [1, 5]: significantly upregulated Col1a expression
TGFβR-1 expression (kidney) [1, 5]: upregulated TGFβR-1 expression without reaching significance
kidney MCP-1 levels [1, 5]: significantly increased MCP-1 levels
kidney osteopontin levels [1, 5]: significantly increased osteopontin levels
serum urea levels [1, 5]: increased urea levels without reaching significance
urinary albumin levels [1, 5]: increased albumin levels without reaching significance
Col1a expression (lung) [3]: upregulated Col1a expression without reaching significance
Col3a expression (lung) [3]: inhibited Col3a expression without reaching significance
MCP-1 expression (lung) [3]: upregulated TIMP-1 expression without reaching significance
TGFβR-1 expression (lung) [3]: significantly inhibited TGFβ-1 expression
TIMP-1 expression (lung) [3]: significantly upregulated TIMP-1 expression
collagen deposition (lung) [3]: significantly decreased collagen levels
fibronectin expression (lung) [3]: upregulated fibronectin expression without reaching significance
lung MCP-1 levels [3]: increased MCP-1 levels without reaching significance
lung TIMP-1 levels [3]: increased TIMP-1 levels without reaching significance
lung osteopontin levels [3]: increased osteopontin levels without reaching significance
osteopontin expression (lung) [3]: had no effect on osteopontin
